Measurements published in PubChem BioAssay AID1794845 (National Center for Advancing Translational Sciences (NCATS), 2023).
Hit rate of the full screen: of about 6,900 compounds, fewer than 10 were called active. Calls come from the whole dose curve; as a rule, active = well fitted curve in the direction sought with a large enough effect; inconclusive = small, poorly fitted or top-dose-only effect, or another doubt; inactive = no such curve, though single readings can be large or run the other way. Some of the results follow.

Sequences of proteins named here, by UniProt entry; tags and fusion partners are left off. A change or cut given only in a name is not applied to a line headed by its entry.
UniProt C7C422: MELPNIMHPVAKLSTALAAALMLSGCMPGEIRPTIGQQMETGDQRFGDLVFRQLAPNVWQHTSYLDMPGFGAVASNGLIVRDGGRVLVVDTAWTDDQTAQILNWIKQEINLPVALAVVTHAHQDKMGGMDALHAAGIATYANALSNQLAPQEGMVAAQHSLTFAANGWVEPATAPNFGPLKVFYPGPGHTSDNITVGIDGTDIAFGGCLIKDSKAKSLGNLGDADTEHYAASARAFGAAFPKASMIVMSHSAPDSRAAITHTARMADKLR

The compounds below were run against Metallo-beta-lactamase type 2 (Klebsiella pneumoniae) (UniProt C7C422) (assay: qHTS to identify inhibitors of the New Delhi Metallo-beta-lactamase (NDM): primary screen against the NCATS Gemini Collection). Settings: NDM-1 enzyme, meropenem hydrolysis, absorbance 300 nm; at 38.4 µM (top of the series) unless noted.
Method in brief: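 Meropenem hydrolysis (50 uM final) by 2 nM NDM-1 read as 300 nm absorbance after 30 min, following >30 min compound–enzyme preincubation in HEPES pH 7.0 with 1 uM ZnSO4 and 0.01% Tween20.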
Note: % of control where 0% means no effect.

SMILES	activity % (negative = inhibition)
OC[C@@H]1O[C@H](CNC2CCOCC2)[C@H](N2CCCC2)[C@@H]1O	inactive: 6.29% [at 57.5 µM]
CCNC(=O)[C@@H]1C[C@H](NC(=O)c2ccc[nH]2)CN1C(=O)Cc1cc(C)no1	inactive: -10.3%
CCCCc1ncc(-c2c(-c3ccccc3)ncn2CCCn2ccnc2)[nH]1	inactive: 71.4%
COCC(=O)N[C@@H]1CN(C2CCOCC2)CC[C@@H]1CO	inactive: 3.44%
CC(=O)N1CCC(C(=O)NC2CCc3n[nH]c(=O)n3CC2)CC1 (stereo not given)	inactive: 10.5%
O=C1CCN(C(=O)c2nccc3ccccc23)CCOCCN1	inactive: 12.8%
N#Cc1cccnc1-c1ccc(C(=O)N2CCC(N[S+](=O)([O-])c3cccc(C(F)(F)F)c3)CC2)cc1	inactive: -0.821%
O=[S+]1([O-])NC2(CCCN(Cc3ccc(F)cc3)C2)CNc2ccccc21 (stereo not given)	inactive: 0.296%
COc1cccc(CCC(=O)NC2CCc3nn(CC4CC4)c(=O)n3CC2)c1 (stereo not given)	inactive: -8.02%
COc1ccc(Cl)cc1C(=O)N(C)C1CCc2nn(C)c(=O)n2CC1 (stereo not given)	inactive: -3.75%
O=C(NC[C@H]1O[C@@H](CO)[C@@H](O)[C@H]1N1CCOCC1)c1cccc(F)c1	inactive: 1.65% [at 57.5 µM]
CNC(=O)N1CCC(C2CCN(C(=O)CCc3ccccc3OC)C2)CC1 (stereo not given)	inactive: 3.25%
COc1cccc(-c2ccc(C(=O)NCCNC(=O)C3CCCC3)cc2)c1	inactive: -3.57% [at 57.5 µM]
C[S+](=O)([O-])NC1CCN(c2nc3ncccc3o2)C1 (stereo not given)	inactive: 21.1% [at 57.5 µM]
O=C(NC1CCN(Cc2ccccc2)CC1)C1CCCN(c2cnc3nccnc3c2)C1 (stereo not given)	inactive: 0.66%
COc1ccc(CN(C)CC2CCN(C)C2(C)C)cc1C(=O)O (stereo not given)	inactive: -3.59%
O=C(Cc1c[nH]c2ccccc12)N1CCc2c(nc(-c3ccc(F)cc3)[nH]c2=O)C1	inactive: 5.73%
O=C(NCc1cccnc1)c1cc(CN2CCC(Cc3ccccc3)CC2)on1	inactive: -1.98%
C=CCCC(CN1CCSCC1)Oc1ncc(CC)cn1 (stereo not given)	inactive: -1.25%
O=C(N[C@H](c1ccccn1)C1CC(O)C1)c1ccc(Cn2cccn2)o1 (stereo not given in full)	inactive: -0.64%
COc1cc2c(cc1CN1CCC3(CCCNC3)C1)OCCCO2 (stereo not given)	inactive: 1.14%
CCOC(=O)C1(Cc2ccc(F)cc2)CCCN(C(=O)c2cc3nc(C)cc(C)n3n2)C1 (stereo not given)	inactive: -0.462%

A draw from above in order of number of heavy atoms, largest number first.
SMILES	activity % (negative = inhibition)
O=C(NC[C@H]1O[C@@H](CO)[C@@H](O)[C@H]1N1CCOCC1)c1cccc(F)c1	inactive: 1.65% [at 57.5 µM]
CC(=O)N1CCC(C(=O)NC2CCc3n[nH]c(=O)n3CC2)CC1 (stereo not given)	inactive: 10.5%
C=CCCC(CN1CCSCC1)Oc1ncc(CC)cn1 (stereo not given)	inactive: -1.25%

More entries follow.

SMILES	activity % (negative = inhibition)
COc1ccc(CCC(=O)N2CCC3(CC2)CC(Cc2nc(-c4cnccn4)no2)CCO3)cc1 (stereo not given)	inactive: 18.5%
O=C(Nc1ccc2c(c1)OCCO2)N[C@@H]1C[C@H](CO)[C@@H](O)[C@H]1O	inactive: 2.35% [at 57.5 µM]
COc1cccc(CCC(=O)N2CCC(OCC3CC3)C2)c1 (stereo not given)	inactive: 22%
O=C(NCc1cccc(Cl)c1)c1ccc2oc(-c3cccnc3)nc2c1	inactive: 5.42%
Cn1cccc1CN1CC(Oc2ccc(F)cc2F)C1	inactive: 18.2% [at 57.5 µM]
O=C(c1ccsc1)N1CCC2(CC1)CN(C1CCC1)CC2CO (stereo not given)	inactive: 4.41%
CC(C)S(=O)(=O)N1CCC(N(Cc2cccnc2)C2CCOCC2)CC1	inactive: 5.29%
COCCNc1ncccc1-c1noc([C@@H]2CCCN2C2CCN(C)CC2)n1	inactive: 1.31% [at 57.5 µM]
c1ccc(CO[C@H]2COCCN(c3nc4ccccc4o3)C2)cc1	inactive: -0.878% [at 57.5 µM]
CCN1C(=O)C2(CCN(S(=O)(=O)c3c(C)nn(C)c3C)CC2)c2ccccc21	inactive: -4.02%
Cc1ccc2nc(C(=O)N3CCCC3c3cc(C(C)C)on3)cn2c1 (stereo not given)	inactive: 1.05%
Cc1ccccc1CC(=O)N1CC(F)(F)C[C@H]1c1nnc(C2CC2)o1	inactive: 0.677%
COc1ccc(-c2nccn2CC(CO)Cc2ccsc2)cc1O (stereo not given)	inactive: 0.419%
CCCc1sc(NC(=O)C[C@H]2NC(=O)c3ccccc3NC2=O)nc1C(=O)OC	inactive: 1.05%
Cc1nn2c(c1-c1ccccc1-c1ccccc1)N(C(=O)c1cnccn1)CCC2	inactive: 6.58% [at 57.5 µM]
Cc1ccc(S(=O)(=O)Cc2noc([C@@H]3C[C@@H](O)CN3Cc3cccc(C#N)c3)n2)cc1	inactive: -0.158%
Cc1ccsc1CN1CCc2nc(N3CCOCC3)[nH]c(=O)c2CC1	inactive: 5.27%
OC[C@@H]1CNC[C@H]1C1CCN(Cc2ccsc2)CC1	inactive: 0.543%
CC(C)N1CCC(N2C[C@@H](CO)[C@H](c3nc(C4CC4)no3)C2)CC1	inactive: 30.8%
Cc1noc([C@@H]2CN(Cc3cccnc3)C[C@H]2CO)n1	inactive: 49.8%
COC(=O)c1c(NC(C)=O)c2cc(NC3CCCC(C)(C)C3)cnc2n1CC1CCCO1 (stereo not given)	inactive: 10.9%
CN1CCN(C(=O)[C@@H]2C[C@H](C(=O)O)CN(Cc3cccc(F)c3)C2)CC1	inactive: 2.4%

SMILES	activity % (negative = inhibition)
Cc1ccc(NC(=O)N2CCC(c3nc(CCOCC4CC4)no3)C2)cc1C (stereo not given)	inactive: 6.06%
Cc1ccc(-c2cc(C(=O)NCc3cccs3)nn3cnnc23)cc1	inactive: 0.191%
Cc1cc(C(=O)N2CCC3(CC2)CC(N(Cc2ccc(F)cc2)C2CC2)CCO3)n(C)n1 (stereo not given)	inactive: -2.31%
Cn1cnc(S(=O)(=O)N2CC(c3nc(-c4ccncc4)no3)C2)c1	inactive: 1.06%
COCC1CN(C2CCC2)CC12CCN(Cc1scnc1C)CC2 (stereo not given)	inactive: -0.607%
Cc1ccc(CN2CCC(CNc3cc(C4CC(O)C4)ncn3)CC2)o1 (stereo not given)	inactive: 31.6%
CNC(=O)[C@@H]1C[C@H](Oc2ccccc2)CN1S(=O)(=O)c1ccc2c(c1)CCC2	inactive: 29.7%
O=C(NC1CC(=O)N(CCCc2ccccc2)C1)c1ccoc1 (stereo not given)	inactive: 3.75%
COc1ccc(C(=O)NCCn2c(C)cnc2-c2ccccc2)cn1	inactive: 17.5%
Cc1cccc(-c2cn[nH]c2C2CCN(C(=O)c3cc(=O)[nH]c(=O)[nH]3)CC2)c1	inactive: 7.1%
C[S+](=O)([O-])NCc1nnc2n1C(C(=O)NCc1ccc(Cl)cc1)CC2 (stereo not given)	inactive: -1.43%
CN(Cc1cnn(-c2ccc(F)cc2)c1)c1cc(C2CC(O)C2)ncn1 (stereo not given)	inactive: -6.16%
O=C(NCC(F)F)c1cc(-c2cccs2)c2cccn2n1	inactive: 16.5% [at 57.5 µM]
CC(C)CN1CCN(C(=O)C2CCc3ncc(-c4ccc(F)cc4)n3C2)CC1 (stereo not given)	inactive: 9.46%
CC(C)c1nc(-c2ccc(C(=O)N[C@@H]3COCC[C@@H]3OCC3CC3)cc2)no1	inactive: 1.86%
Cc1ccc(S(=O)(=O)N2CCN(C3CCN(CCC(C)C)C3=O)CC2)cc1F (stereo not given)	inactive: -2.41%
COCCN1CCCC1c1nc(C2CN(C(=O)c3ccccc3OC)C2)no1 (stereo not given)	inactive: 25.2%
Cc1cc(CN2C[C@@H](COCC3CC3)[C@H](c3ccccn3)C2)n(C)n1	inactive: -0.74%
Cc1ccc(C)c(NC(=O)Cn2ccn3nc4c(c3c2=O)CCCCC4)c1	inactive: -7.69%
CCNC(=O)N1CCC(Oc2ncccc2C(=O)N2CCCCC2)C1 (stereo not given)	inactive: -4.74%
O=C(c1nc(-c2ccsc2)c2cnccn12)N1CCCC1	inactive: -1.41% [at 57.5 µM]
CC(C(=O)N1CCc2onc(-c3ccc(F)c(F)c3)c2C1)n1ccnc1 (stereo not given)	inactive: 15.2%

SMILES	activity % (negative = inhibition)
Cc1cnccc1CN(C)C(=O)c1cc(COc2ccc(-n3cncn3)cc2)on1	inactive: 0.341%
O=C(c1ccc2c(c1)OCCO2)N1CCC(Cn2cc(CCO)nn2)CC1	inactive: -2.21%
CNC(=O)Nc1cccn2nc(-c3ccccc3)nc12	inactive: 7.02%
Cc1ccc(C)c(OCc2cc(C(=O)N3CCC(N4CCSCC4)CC3)no2)c1	inactive: -0.985%
O=C([C@H](O)c1ccccc1)N1CCc2onc(-c3cccc4ccccc34)c2C1	inactive: 3.32%
N#Cc1cccc(S(=O)(=O)N[C@@H]2CCOC[C@H]2OCc2cscn2)c1	inactive: 2.28%
CCNc1ccnc(N2C[C@H]3CN(C(=O)N(C)C)C[C@@]3(C(=O)O)C2)n1	inactive: -0.749%
COc1ccc(-n2nc3n(c2=O)CCN([S+](=O)([O-])c2c(C)noc2C)C3)cc1	inactive: 7.23%
CC(=O)N1CCC(Cc2ccc(CN(C(=O)CCc3ccccc3)C3CC3)cc2)CC1	inactive: 6.05%
O=C(c1ccc(Cn2ccn3nc4c(c3c2=O)CCCC4)cc1)N1CCN(c2ccccn2)CC1	inactive: 8%
O=C(c1cn(CC2CCCO2)nn1)N1CCN(c2cccc(C(F)(F)F)c2)CC1 (stereo not given)	inactive: 6.76%
CC(C)NC(=O)c1ccnc(-c2cc(NC3CCCC3)nc3[nH]ccc23)c1	inactive: 4.62%
CC(C)(C)c1cc(C(=O)NCc2cccnc2)nn2cccc12	inactive: 1.11%
Cc1ccc(N2CCN(C(=O)c3cc(C(F)(F)F)nn3C)CC2=O)cc1	inactive: -0.0539%
COc1cccc(Nc2nccc3c(=O)cc(-c4ccccn4)oc23)c1	inactive: 24.4% [at 57.5 µM]
O=C(CCC[C@@H]1[C@H]2CCCN3CCC[C@@H](CN1Cc1ccccc1)[C@@H]23)Nc1cccnc1	inactive: -4.45%
Cc1cnc(C(=O)NC2C[C@H]3CC[C@@H](C2)N3C(=O)c2ccccc2C)cn1 (stereo not given in full)	inactive: 11.4%
Cc1nnc([C@H]2CCN(C(=O)c3ccccc3)C2)o1	inactive: -0.916% [at 77.1 µM]
Cc1cc(F)ccc1-c1[nH]nc2ncc(-c3ccnn3C)nc12	inactive: 16.3% [at 57.5 µM]
